No constants are given. Whether binding was seen depends on the method and setting. Binding can be weak; no strength is given. Sequences can lack the tags named with a protein.
B1: MutL protein of N. gonorrhoeae FA1090, His-tagged, purified (plasmid pAK20) (natural protein, UniProt Q5F8M6 1-658, looked up)
chain: MPRIAALPDHLVNQIAAGEVVERPANALKEIVENSIDAGATAVDVELEGGGIRLIRVGDNGGGIHPDDIELALHRHATSKIKTLNDLEHVASMGFRGEGLASIASVSRLTLTSRQEDSSHATQVKAEDGKLSSPTAAAHPVGTTIEAAELFFNTPARRKFLKSENTEYAHCATMLERLALAHPHIAFSLKRDGKQVFKLPAQSLHERIAAIVGDDFQTASLEIDSGNSALRLYGAIAKPTFAKGKTDKQYCFVNHRFVRDKVMLHAVKQAYRDVLHNALTPAFVLFLELPPEAVDVNVHPTKTEIRFRDSRQVHQLVFHTLNKALADTRANLTESVSNAGEVLHDITGVTPAPMPSENDGENLFDSASNHPTGNKPDTRNAFGSSGKTAPMPYQAARAPQQHSLSLRESRAAMDTYAELYKKTDDIDLELSQFEQARFGNMPSETPAHKTDTPLSDGIPSQSELPPLGFAIAQLLGIYILAQAEDSLLLIDMHAAAERVNYEKMKRQRQENGNLQSQHLLIPVTFAASHEECAALADHAETLAGFGLELSDMGGNTLAVRAAPVMLGKSDVVSLARDVLGELAQVGSSQTIASHENRILATMSCHGSIRAGRRLTLPEMNALLRDMENTPRSNQCNHGRPTWVKLTLKELDTLFLRGQ
notes: MutL of Neisseria gonorrhoeae FA1090; mutLNgo gene (1977 bp) amplified from chromosomal DNA with primers MutLfor/MutLNgoR and cloned into the NheI-HindIII sites of pET28a(+); The His-Tag at the amino terminus is encoded by the vector; also called MutLNgo; gonococcal MutL protein; source: E. coli BL21(DE3)pLys (pAK20), autoinduction, purified (Ni-NTA Agarose); not shown: His-Tag, N-terminal, kept
B2: MutS protein of N. gonorrhoeae FA1090, His-tagged, purified (plasmid pAK21) (protein, UniProt Q5F5J4 1-864)
chain: MSKSAVSPMMQQYLGIKAQHTDKLVFYRMGDFYELFLDDAVEAAKLLDITLTTRGQMDGVPIKMAGVPFHAAEQYLARLVKLGKSVAICEQVGEVGAGKGPVERKVVRIVTPGTLTDSALLEDKETNRIVAVSPDKKYIGLAWASLQSGEFKTKLTTADKLNDELARLQAAEILLPDSKNAPQLQTASGVTRLNAWQFAADAGEKLLTEYFGCQDLRGFGLDSKEHAVSIGAAGALLNYIRLTQNLMPQHLDGLSLETDSQYIGMDAATRRNLEITQTLSGKKTPTLFSILDGCATHMGSRLLALWLHHPLRNRAHIRARQEAVTALESQYEPLQCHLKSIADIERIAARIAVGNARPRDLASLRDSLFELAQIDLSATGSSLLETLKAVFPETLPVAETLKAAVMPEPSVWLKDGNVINHGFHPELDELRRIQNHGDEFLLDLEAKERERTGLSTLKVEFNRVHGFYIELSKTQAEQAPADYQRRQTLKNAERFITPELKAFEDKVLTAQDQALALEKQLFDGVLKNLRTALPQLQKAAKAAAALDVLSTFSALAKERNFVRPEFADYPVVHIENGRHPVVEQQVRHFTANHTDLDHKHRLMLLTGPNMGGKSTYMRQVALIVLLAHTGCFVPADAATIGPVDQIFTRIGASDDLASNRSTFMVEMSETAYILHHATEQSIVLMDEVGRGTSTFDGLALAHAIAEHLLQKNKSFSLFATHYFELTYLPEAHAAAVNMHLSALEQGRDIVFLHQIQPGPAGKSYGIAVAKLAGLPVRALKAAQKHLNGLENQAAANRPQLDIFSTMPSEKGDEPNVDCFVDKAEEKHFEGILAAALENLDPDSLTPREALSELYRLKDLCKSVS

Experiments:
[1] = molecular target: V.NgoAXIII endonuclease, purified (ngoAXIIIV gene in pET28a(+)) (N. gonorrhoeae FA1090); test: pull-down; protein affinity chromatography: 250 μg V.NgoAXIII, V.NgoAXIV or MutLNgo coupled to Affi-Gel 10; 250 μg His-tagged MutLNgo or MutS applied in 25 mM Tris pH 7.5, 50 mM NaCl with 2 mM ATP and 5 mM MgCl2; washed with the same buffer, eluted with 250 mM NaCl; fractions blotted with an anti-His-Tag antibody; both purified
[2] = molecular target: V.NgoAXIV endonuclease, purified (ngoAXIVV gene in pQE-30) (N. gonorrhoeae FA1090); test: as above

Row | Binder | binding [1] | binding [2]
1 | B1 | binds | binds
2 | B2 | no binding (tested: 250 μg MutS applied) | no binding (tested: 250 μg MutS applied)

Source: publication PMC6116569, “Activity of Vsr endonucleases encoded by Neisseria gonorrhoeae FA1090 is influenced by MutL and MutS proteins” (BMC Microbiology, 2018)
